For 104 compounds, host macrophage viability results are on record in the supplement of paper PMC12578635.

± gives the standard deviation of the averaged measurements. The list shows a part of the results. Many values rest on one well or one pass, so single values are uncertain.

The subject of the test is RAW 264.7 macrophages infected with S. aureus JE2-lux. The test can be described thus: host macrophage viability (CellTiter-Fluor) relative to DMSO vehicle; higher = more viable host cells. The following applies: 10 µM; treatment time 4 h; gentamicin 50 µg/ml.
Take `COc1ccc(C2c3[nH]c4ccccc4c3CCN2C(=O)c2cccnc2)cc1` (centres undefined): the host macrophage viability came out at 118%.
Then `CCCC(=O)Nc1nc2c(s1)C(=O)CC(C)(C)C2`, with 109%.
Then `O=C(CSCc1ccccc1)Nc1cc(Cl)ccc1Cl`, with 102%; and `CCc1nc(-c2csc(S(=O)(=O)Nc3ccc(Cl)cn3)c2)no1`, with 87.2%; and `CCc1ccc(Nc2nc(C(=O)O)nc3ccccc23)cc1`, with 104%.
Then `CCOc1ccccc1NC(=O)Cn1c(C)c(Cc2ccccc2)c(=O)n2nc(-c3ccccc3)nc12`, with 138%; and `Cc1cc(C)nc(NC(=O)c2ccc3c(c2)nnn3Cc2ccccc2C)n1`, with 115%; and `O=C(NCCCN1CCOCC1)c1cc2n(n1)CCCN(Cc1ccc(F)cc1)C2=O`, with 102%.
Consider `COC(=O)c1ccc(CSc2nc(-c3ccc(F)cc3)nc3c2c(=O)n(C)c(=O)n3C)o1`, for which the host macrophage viability turned out to be 111 ± 2.1%.
As for `Cc1cc2nc(C3CCCN3C(=O)c3snnc3C)[nH]c2cc1C` (centres undefined), the host macrophage viability came to 115%.
In the case of `CN1CCN(c2ncnc3scc(-c4ccc(Cl)cc4)c23)CC1` it was 128%; in that of `COc1ccc(NC(=O)c2c(N)c(C(=O)c3ccc(OC)cc3)n3ccccc23)cc1`, 136%.
In the case of `CCC(NC(=O)Cn1c(-c2cccs2)cc2cccnc21)c1c(C)nn(CC)c1C` (centres undefined) it was 113%; in that of `COc1ccc(-c2cc(C(F)(F)F)n3nc(C(=O)N4CCN(c5ccccc5)CC4)nc3n2)cc1`, 143%.
Then `O=S(=O)(/N=C/c1c(O)ccc2ccccc12)c1cccs1`, with 107%; and `c1ccc2c(c1)CCN(c1nc3cc4c(cc3s1)OCCO4)C2`, with 106 ± 1.2%.
In the case of `COC(=O)Cc1c(-c2ccccc2)c2cc(Br)ccc2[nH]c1=O`, the host macrophage viability came out at 104%.
With `Clc1ccc(-c2nnc(C(c3ccccc3)N3CCc4ccccc4C3)o2)cc1` (centres undefined), the host macrophage viability stood at 127%.
In the case of `Cn1c(=O)[nH]c(=O)c2c1nc(N1CCOCC1)n2CCCSc1nc2ccccc2o1` it was 116%.
In the case of `COCCn1c(SCC(=O)Nc2ccc(C(=O)OC)cc2)nc2cccnc21` it was 102%; in that of `CCS(=O)(=O)c1ccc(C(=O)Nc2nc3c(OC)ccc(C)c3s2)cc1`, 120%.
As to `COc1ccc(NC(=O)N(Cc2cc3cc(C)ccc3n3nnnc23)CC2CCCO2)cc1` (centres undefined), the host macrophage viability came out at 93.6%.
Then `CCSc1ccccc1C(=O)Nc1nc2c(s1)COc1ccccc1-2`, with 132%; and `Cc1ccc(S(=O)(=O)Nc2ccccc2C(=O)Nc2cccc3c2C(=O)c2ccccc2C3=O)cc1`, with 127%; and `CC(=O)Nc1ccc(NC(=O)CN2CCC3(CC2)NC(=O)N(C)C3=O)cc1`, with 106%.
With `COc1ccccc1N1CC(C)Cn2c1nc1c2c(=O)n(CC(N)=O)c(=O)n1C` (centres undefined), the host macrophage viability was 109%.
For the compound `O=C(CNC(=O)c1ccccc1)N/N=C1\C(=O)Nc2ccc([N+](=O)[O-])cc21`, the host macrophage viability was 135%.
In the case of `COc1cccc(C(=O)COC(=O)c2cc(O)nc3ccccc23)c1` it was 127%.
Then `Cc1nc(N2CCN(c3ccccc3)CC2)[nH]c(=O)c1CCC(C)C`, with 123%; and `COC(=O)c1c(NC(=O)CCc2ccccc2)sc2c1CC(C)(C)NC2(C)C`, with 113%.
Then `Cc1sc2ncnc(NC3CCCCC3)c2c1S(=O)(=O)N1CCCCC1`, with 117%; and `CCOc1cccc(-c2csc(NC(=O)c3cnc(SC)nc3)n2)c1`, with 112%; and `COc1ccc(C2CC(c3cccs3)=NN2C(=O)COc2cccc3c2CCNC3=O)cc1` (centres undefined), with 117%.
`CC(NC(=O)CC1Nc2cccc3cccc(c23)NC1=O)c1ccccc1` (centres undefined): the host macrophage viability was 129%.
Then `COc1cccc(-c2noc(-c3cccn4c(=O)c5ccccc5nc34)n2)c1OC`, with 126%.
`c1cnc(N2CCN(c3nn4nnnc4c4ccccc34)CC2)nc1`: the host macrophage viability turned out to be 108%.
In the case of `CCOC(=O)C(C)Sc1nc2c(c(=O)[nH]c(=O)n2C)n1CCc1ccccc1` (centres undefined) it was 125%; in that of `COc1ccc(C2CC(c3cccc(NS(C)(=O)=O)c3)=NN2C(=O)c2ccco2)cc1` (centres undefined), 110%; in that of `CCOC(=O)c1c(C)oc2c1C1=NC(C)(C)CN1C=N2`, 124%.
In the case of `O=C(CSc1nnc2c(n1)-c1cccc3cccc-2c13)NNC(=O)c1ccc(Cl)cc1` it was 103%.
For `CN(C)c1cccc(C(=O)Nc2nnc(-c3ccccc3)[nH]2)c1`, the host macrophage viability came to 103%.
Then `CCCc1cc(=O)[nH]c2nnc(SCc3ccc(C(=O)OC)o3)n12`, with 101%; and `COC(=O)c1cc2c(cc1NC(=O)c1cc3cccc(OC)c3oc1=O)OCCO2`, with 119%.
In the case of `Cn1/c(=N\C(=O)CCS(=O)(=O)c2ccc(F)cc2)sc2c(Cl)ccc(Cl)c21` it was 129%; in that of `Cc1cc2cc3c(N)c(C(=O)N4CCc5ccccc54)sc3nc2cc1C`, 101%; in that of `O=C(O)c1ccc(CNC2=NS(=O)(=O)c3ccccc32)cc1`, 120%.
Then `Cc1ccc2cccc(S(=O)(=O)Nc3ccc(C(=O)O)cc3)c2n1`, with 130%.
As to `CN(Cc1ccccc1)C(=O)Cn1cccc1-c1nc(-c2ccc(Cl)cc2)cs1`, the host macrophage viability came to 107%.
As for `Cc1cc2nnc(SCC(=O)NCc3ccco3)n2c2ccccc12`, the host macrophage viability was determined as 105 ± 2.8%.
Consider `COc1ccc(OC)c(-n2c(=S)[nH]c3cc(C(=O)NCc4ccco4)ccc3c2=O)c1`, for which the host macrophage viability worked out at 115%.
Take `CC(=O)Nc1ccc2nc(NC(=O)c3cc(Cl)sc3Cl)sc2c1`: the host macrophage viability is 116 ± 8.6%.
In the case of `Cn1c(=O)c2sccc2n2c(CCCC(=O)NCCc3c[nH]c4ccccc34)nnc12` it was 119%; in that of `NC(=O)c1sc(=S)n(-c2ccccc2)c1N`, 102 ± 3.7%; in that of `COc1ccc(NC(=O)CSc2nnc(-c3cccnc3)o2)c(OC)c1`, 124%.
`Cn1c2ccc(Br)cc2c2nnc(SCc3nc4ccccc4[nH]3)nc21`: the host macrophage viability amounted to 123%.
Then `CCOC(=O)CSc1nc2c([nH]1)c(=O)n(C)c(=O)n2C`, with 107%; and `Cc1nc2cc(NC(=O)Nc3ccc(Cl)cc3)ccc2n1-c1ccccc1`, with 105%.
In the case of `COc1cccc(Nc2nc(NC3CCN(Cc4ccccc4)CC3)nc3c2cnn3C)c1` it was 93.3%.
In the case of `Nc1c(C(=O)NCc2ccco2)nnn1Cc1cccc(Cl)c1` it was 100%.
In the case of `COc1ccc(C(=O)CSc2nc(=O)[nH]c3c2CCCC3)cc1`, the host macrophage viability is 119%.
In the case of `CCSc1nnc(NC(=O)CCn2c(=O)oc3ccccc32)s1` it was 119 ± 13%; in that of `COc1ccc(-n2nc3c(c2NC(=O)C2(c4ccc(Cl)cc4)CCCC2)CS(=O)C3)cc1` (centres undefined), 116%.
Then `Cc1ccccc1OCCCC(=O)Nc1sc2c(c1C#N)CCC(C)C2` (centres undefined), with 127%.
Then `COc1ccc(NC(=O)Cn2cnc3c(cnn3-c3ccc(F)cc3)c2=O)cc1OC`, with 109 ± 10%.
Take `Cc1ccc2c(c1)C(=O)OC(C(=O)Nc1cc(C)on1)C2` (centres undefined): the host macrophage viability was 113%.
For the compound `COc1ccc(C(NC(=O)c2cnc(C(C)(C)C)nc2)c2ccncc2)cc1` (centres undefined), the host macrophage viability turned out to be 105%.
With `CC1CCc2c(sc3ncn(C4CCN(C(=O)c5ccco5)CC4)c(=O)c23)C1` (centres undefined), the host macrophage viability worked out at 127%.
Then `CCC(=O)NCCSc1ncc(-c2ccccc2)[nH]1`, with 118%; and `CCN1C(=O)c2cccc3c(NC(=O)Nc4ccc(Cl)cc4)ccc1c23`, with 141%.
Then `COc1cc(/C=N/NC(=O)CCc2c(C)n[nH]c2C)ccc1O`, with 114%; and `c1c2c(cc3sc(N4CCOCC4)nc13)OCCO2`, with 111 ± 5.7%; and `COc1cccc(Oc2coc3cc(OCC(N)=O)ccc3c2=O)c1`, with 134%.
For the compound `Cc1cc2ccccc2c(=O)n1CC(=O)NCC1COc2ccccc2O1` (centres undefined), the host macrophage viability was 118%.
In the case of `O=C(NNc1nc2c(F)cccc2s1)c1nc2ccccc2s1` it was 98.4 ± 9.2%; in that of `Cc1cc(NC(=O)c2cc(=O)c3ccccc3o2)no1`, 106.7 ± 0.99%; in that of `Cc1ccnc(NC(=O)C2CCN(S(=O)(=O)c3c(C)nn(CC(=O)N4CCCC4)c3C)CC2)c1`, 130%.
In the case of `CCn1nc(C)c2[nH]c(=S)n(Cc3ccccc3Cl)c(=O)c21` it was 139%; in that of `CCn1c(SCC(=O)c2ccc(C)cc2)nc2cccnc21`, 109%; in that of `COc1ccc2oc(=O)c(C(=O)Nc3cccc(-c4cn5cccc(C)c5n4)c3)cc2c1`, 116%.
In the case of `CNc1ncccc1CN1CCc2cc(OC)c(OC)cc2C1c1ccccc1` (centres undefined) it was 110%; in that of `Cn1c(=O)[nH]c(=O)c2[nH]c(CN3CCN(c4ccc(F)cc4)CC3)nc21`, 119%.
Regarding `CC(=O)N1CCCc2ccc(NC(=O)C(=O)NCCc3ccc(S(N)(=O)=O)cc3)cc21`, the host macrophage viability came to 103%.
Take `CCOc1ccc2nc(-n3nc(C)c4c3NC(=O)CC4c3cc(Br)ccc3OC)sc2c1` (centres undefined): the host macrophage viability turned out to be 133%.
In the case of `COc1ccc(CN(Cc2cc3cc(C)ccc3[nH]c2=O)C(=O)N2CCCC2)cc1` it was 111%; in that of `Cc1ccc2c(c1)n(Cc1ccc(Cl)cc1)c(=O)c1nc(C(=O)NCCN3CCCC3)nn12`, 112%.
Then `Cn1c(SCC(=O)Nc2ccc3c(c2)OCO3)nc2c(-c3ccccc3)csc2c1=O`, with 115%.
Then `O=C(Nc1sc2c(c1C(=O)NC1CCS(=O)(=O)C1)CCCC2)c1ccccc1Cl` (centres undefined), with 119%; and `CN(C)S(=O)(=O)N1CCC(n2nc(C3CC3)ccc2=O)CC1`, with 93.3%.
In the case of `Cc1cc2ccccc2n2c(=O)n(CC(C)NC(=O)CC(C)n3cncn3)nc12` (centres undefined), the host macrophage viability came to 115%.
Turning to `CC(=O)Nc1cccc(NC(=O)CSc2nc(=O)n(Cc3ccco3)c3c2CCC3)c1`, the host macrophage viability was determined as 126%.
In the case of `Cc1ccc(/C=C(\C#N)C(=O)Nc2ccccc2O)o1` it was 81 ± 9%.
In the case of `CC(=O)c1cccc(NC(=O)CSc2ccc(-c3ccccn3)nn2)c1` it was 117%; in that of `CN(C(=O)c1ccc(Cn2cccn2)o1)c1nc2c(s1)CCc1c-2cnn1C`, 95.1%.
In the case of `Cc1cc(C)c2c(O)nc(SCC(=O)c3ccc(F)c(C)c3)nc2n1` it was 121%.
Take `CC(=O)Nc1cc2c(cc1NC(=O)c1ncoc1-c1cccc(F)c1)OCCO2`: the host macrophage viability was determined as 115%.
Then `CCn1c(SCC(=O)NNC(=O)c2ccc(C)cc2)nc2c1c(=O)n(C)c(=O)n2C`, with 115%.
Then `Cc1cccc2cc(C#N)c(SCC(=O)Nc3ccccc3-c3ccccc3)nc12`, with 108%; and `COC(=O)c1ccc2nc(NC(=O)/C=C/c3cccs3)sc2c1`, with 131%.
Then `O=C(CSc1nnc2ccc(-c3ccncc3)nn12)NCc1ccc(F)cc1`, with 112%; and `Cn1nc(C(=O)NCc2ccc(F)cc2)c2c1CCN(C(=O)c1cc(-c3cccs3)on1)C2`, with 127%; and `O=C(NCC1CCCN1S(=O)(=O)c1cccs1)c1ccc([N+](=O)[O-])cc1` (centres undefined), with 120%.
Take `COc1ccccc1C(=O)Nc1cc(C(=O)N(C)C)cnc1N1CCNCC1`: the host macrophage viability amounted to 134%.
Then `O=C(NCc1ccc2c(c1)OCO2)c1ccc(-c2ccc(N3CCOCC3)nn2)cc1`, with 108%; and `COc1ccc(CNC(=O)CSc2nccnc2N2CCSCC2)cc1`, with 123%.
